Data taken from publication PMC7324386.
These are yes or no findings as the source states them, for the method shown. In cells and extracts the contact can be indirect. A yes stands for co-enrichment or nearness to the bait. Other partners may have been found. Sequences can lack the tags named with a protein.

T1: PUX5-BioID2-HA (Arabidopsis thaliana) (UniProt Q7Y175)
T1 sequence: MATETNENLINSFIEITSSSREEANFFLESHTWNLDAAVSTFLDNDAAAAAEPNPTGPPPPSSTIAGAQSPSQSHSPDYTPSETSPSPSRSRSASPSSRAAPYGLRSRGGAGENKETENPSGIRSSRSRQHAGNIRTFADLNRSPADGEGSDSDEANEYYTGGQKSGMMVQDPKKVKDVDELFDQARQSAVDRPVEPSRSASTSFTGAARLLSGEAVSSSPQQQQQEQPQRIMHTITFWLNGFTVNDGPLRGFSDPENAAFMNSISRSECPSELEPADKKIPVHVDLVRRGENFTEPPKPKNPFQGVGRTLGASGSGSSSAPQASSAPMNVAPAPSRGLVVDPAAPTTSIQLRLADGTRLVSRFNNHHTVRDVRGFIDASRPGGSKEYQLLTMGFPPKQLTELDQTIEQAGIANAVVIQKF

T2: HA-BioID2-SUN1 (Arabidopsis thaliana) (UniProt Q9FF75)
T2 sequence: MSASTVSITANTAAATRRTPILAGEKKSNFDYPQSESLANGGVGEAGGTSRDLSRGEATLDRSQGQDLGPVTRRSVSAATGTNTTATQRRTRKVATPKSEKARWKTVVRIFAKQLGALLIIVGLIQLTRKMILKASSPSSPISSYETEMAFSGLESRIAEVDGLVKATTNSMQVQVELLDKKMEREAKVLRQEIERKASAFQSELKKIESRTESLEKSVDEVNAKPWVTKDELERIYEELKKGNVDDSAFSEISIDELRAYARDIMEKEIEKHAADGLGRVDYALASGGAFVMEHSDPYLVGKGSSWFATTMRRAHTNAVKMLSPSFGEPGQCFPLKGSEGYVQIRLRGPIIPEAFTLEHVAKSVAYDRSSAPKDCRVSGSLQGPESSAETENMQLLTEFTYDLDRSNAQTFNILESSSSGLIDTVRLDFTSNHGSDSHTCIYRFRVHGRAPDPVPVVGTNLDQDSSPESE


Experiments:
[1] = target: T1, PUX5-BioID2-HA (Arabidopsis thaliana); experiment: proximity labelling; BioID2-tagged bait in 10-day-old transgenic Arabidopsis seedlings, 50 µM biotin for 16 h at room temperature, streptavidin-coated beads, label-free quantitative MS, ratiometric analysis against controls; the SUN1 bait also with MG132 treatment
[2] = target: T2, HA-BioID2-SUN1 (Arabidopsis thaliana); experiment: as above

binding [1] | binding [2] | Binder
binds | binds | PUX3 (protein, UniProt Q9SUG6 1-302) MSSKDKKLSKPTSGRTGGIRTLSDLNRRSEPDSDSDSDGPQEYFTGGEKSGMLVQDPTKEPKHDDVDEIFNQARQLGAVEGPLEHPSSSRSFTGTGRLLSGESVPTALQQPEPVIHNIIFWSNGFTVDDGPLRKLDDPENASFLDSIRKSECPKELEPVDKRAPVHVNLMRRDEKCPEKEKLKVSFQGVGRTLGGASSSTASSQSNLTDVAAVQSPLQSLVVDETLPSTSIQLRLADGTRMVAKFNNHHTVNDIRGFIEFSRPGNPNNYTLQVMGFPPKPLTDPSQTIEQAGLASSVVIQKF
binds | binds | CRWN4 (protein, UniProt Q9FLH0 1-1010) MATSSRSERFPITPSTAATNRLTITPNSRVLKSPLTEEIMWKRLKDAGFDEQSIKNRDKAALIAYIAKLESEVYDYQHNMGLLLLEKNELSSQYEEIKASVDESDLTHMREKSAYVSALAEAKKREESLKKDVGIAKECISSLEKTLHEMRAECAETKVSAGSTMSEAHVMIEDALKKLADAEAKMRAAEALQAEANRYHRIAERKLKEVESREDDLTRRLASFKSECETKENEMVIERQTLNERRKSLQQEHERLLDAQVSLNQREDHIFARSQELAELEKGLDTAKTTFEEERKAFEDKKSNLEIALALCAKREEAVSERESSLLKKEQELLVAEEKIASKESELIQNVLANQEVILRKRKSDVEAELECKSKSVEVEIESKRRAWELREVDIKQREDLVGEKEHDLEVQSRALAEKEKDITEKSFNLDEKEKNLVATEEDINRKTTMLEDEKERLRKLDLELQQSLTSLEDKRKRVDSATQKLEALKSETSELSTLEMKLKEELDDLRAQKLEMLAEADRLKVEKAKFEAEWEHIDVKREELRKEAEYITRQREAFSMYLKDERDNIKEERDALRNQHKNDVESLNREREEFMNKMVEEHSEWLSKIQRERADFLLGIEMQKRELEYCIENKREELENSSRDREKAFEQEKKLEEERIQSLKEMAEKELEHVQVELKRLDAERLEIKLDRERREREWAELKDSVEELKVQREKLETQRHMLRAERDEIRHEIEELKKLENLKVALDDMSMAKMQLSNLERSWEKVSALKQKVVSRDDELDLQNGVSTVSNSEDGYNSSMERQNGLTPSSATPFSWIKRCTNLIFKTSPEKSTLMHHYEEEGGVPSEKLKLESSRREEKAYTEGLSIAVERLEAGRKRRGNTSGDETSEPSNNKKRKHDVTQKYSDEADTQSVISSPQNVPEDKHELPSSQTQTPSGMVVISETVKITRVTCETEVTNKVTTLDCSESPSEAGRKMGEETEDGDCNQTGINASETVIHNEAATEDICT
